Source: article PMC11206880, “The RNA Helicase Ded1 from Yeast Is Associated with the Signal Recognition Particle and Is Regulated by SRP21” (Molecules, 2024)
These are yes or no findings as the source states them, for the method shown. Binding seen in cells or lysates may run through a third protein. Here binding means that the protein was enriched with, or labelled near, the bait; the list need not be complete.

Protein sequences, listed by entry. Tags and fused reporters are not part of them.
UniProt P06634: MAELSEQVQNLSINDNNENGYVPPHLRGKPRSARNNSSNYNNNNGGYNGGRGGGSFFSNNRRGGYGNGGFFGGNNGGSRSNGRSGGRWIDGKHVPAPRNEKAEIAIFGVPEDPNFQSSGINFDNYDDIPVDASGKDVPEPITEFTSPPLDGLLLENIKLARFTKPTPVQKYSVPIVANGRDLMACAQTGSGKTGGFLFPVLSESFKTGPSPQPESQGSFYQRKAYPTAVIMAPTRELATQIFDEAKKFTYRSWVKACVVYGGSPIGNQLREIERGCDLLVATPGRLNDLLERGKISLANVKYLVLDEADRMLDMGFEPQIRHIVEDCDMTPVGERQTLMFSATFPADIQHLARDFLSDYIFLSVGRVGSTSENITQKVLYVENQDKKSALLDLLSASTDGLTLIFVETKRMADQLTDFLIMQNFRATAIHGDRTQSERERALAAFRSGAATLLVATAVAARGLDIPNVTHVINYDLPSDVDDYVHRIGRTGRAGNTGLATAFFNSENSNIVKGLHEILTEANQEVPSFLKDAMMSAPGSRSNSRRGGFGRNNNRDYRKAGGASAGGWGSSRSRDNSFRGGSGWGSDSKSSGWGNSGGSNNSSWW

Target: Ded1 (Saccharomyces cerevisiae (endogenous in yeast extract)) (UniProt P06634)
Assay: affinity purification with mass spectrometry; Ded1-specific IgG pull-down of polysome sucrose-gradient fractions of yeast; nano-LC ESI MS/MS

Row | binding | Binder
1 | binds | SRP68 (protein, UniProt P38687 1-599) MVAYSPIIATYGNRAEQFLETDSDFAKYHAKLNKKLQHLRSRCHLVTKDTKKYSSKNKYGEINSEDYDNKTKLIGVLILLHAERDLALAETLKLRARQRGKLKKSEEKVLSTRLKKACKTADKLVNVTQNEQQWITRAQYLAFAKLVHSEYLINGKRFKRKDNAKISNNLALVFAALEHLKNLSLLAEEVVDNIVNKYQYSLKQYAGNLITTPEINNFIVERVQSDENKDDELVKLLLDNGFNMKKITTSTEDQKVTTNINWRSFNAKIIDAEVAQFLEQGLSIHPTQITQYTQRLSKLEKALDRHEFFIANHDDQDDIDEMVENSSENNQIILAYIKYNILLTSISRERDLFTHLWNQWLKLNTSLPSKLTKYKEMERIVKNLTKYLSDIMELPGVYSDDELLSQLDLCKLYFQLFLNTGCLSVLYQSKGRYMEALALYVDAYRRLENKLSEIESLDEILLPANLLSLNSVRSLQKRIENGGNSVITLAEYEKRNHGGSLGKYDLTVIEKLDSKKILPTDIQLKNLFPLKPKMLPIPSKPTLFDLAFNYITYDKQEPSASQVKDSVTETESISQTPISNEQTEGEPKKKRGFLGLFGR
2 | binds | SRP21 (protein, UniProt P32342 1-167) MSVKPIDNYITNSVRLFEVNPSQTLFSISYKPPTQKTDTKVSFRTHNSHLSLNYKFTTNKSKDVSRLLSALGPRGVSITPGKIEKIAQSKKKNNKIKESSKKIKGKSIQDIVGLATLIVNTDVEKSDPAAKKTATEPKQKANAVQNNNGNSAASKKKKNKNKGKKKR
3 | binds | His-tagged SRP14 (natural protein, yeast (S. cerevisiae), UniProt P38985 1-146, looked up, SRP14 of yeast, subcloned into the NdeI and XhoI sites of pET22b; source: E. coli Rosetta (DE3), purified (Ni-NTA)) MANTGCLSPGAFLSKVPEFFQTANEKHITVRLTAKRLIEHDPVEGNLEFDSTNHPDYDVSKKASEISVSSRSDREYPLLIRMSYGSHDKKTKCSTVVKASELDQFWQEYSSVFKGGMQNLIKKKKKKSKNGTISKTGKKNKVAKKN
4 | binds | His-tagged Sec65 (natural protein, yeast (S. cerevisiae), UniProt P29478 1-273, looked up, Sec65 of yeast, cloned into the XhoI and BamHI sites of pET19b; source: E. coli Rosetta (DE3), purified (Ni-NTA)) MPRLEEIDDFNDIDDLDMELAELDPSLRTPIAPKITPKVVRSQDQENPAFLPGTNNNSNSNNNSSNEKEQLSFINPKTGKVERSEAISKKDLEEVKRFQVLYPCYFDINRSHKEGRRVPKELAVENPLAKTMADAVRELGILCIFEGEKCHPQDFGNPGRIRVLFKENGQLIGAATKFKGGKRQLMKAVGEYMKRHPTTIESLREIPYGPDFDNIEFKKIPRVKGFKMNEIVPLHSPFLMGHPMTKSVYETPKITAAEKSFKPPKNKYKVVRR
